# Measurements published in PMC12378234, “Enzyme-mediated aminoglycoside resistance without target mimicry” (Communications Chemistry, 2025).
# Several values for one entry are separate records, joined by “and”; a condition that tells them apart may be missing. Equal entries are not always repeated. Where two headings read alike, the source gives them in different places. This continues a long series; more values of the same kind are listed elsewhere.
# Tested on: BL21(DE3) E. coli transformed with pUCP18 vector expressing untagged AAC(3)-IIIa
# Assay type: cell-based
# Procedure: Ten milliliters of LB containing […] ampicillin were inoculated from glycerol stocks of transformed BL21(DE3) E. coli containing genes expressing the proteins of interest in pUCP18 vectors. These cultures were incubated at 37 °C with 200 rpm agitation for 16 h. Turbidity was measured through OD600 with a NanoDrop OneC Spectrometer (Thermo Scientific). From the initial cultures, secondary 10 mL cultures were prepared with OD600 values of 0.1. These cultures were grown until OD600 values of 0.4–0.6 were reached and diluted to bring all cultures to the same OD600. Cultures were induced with 1 mM Isopropyl β-D-1-thiogalactopyranoside and incubated for 4 h. Two microliters of culture was added to 198 μL of LB with an appropriate aminoglycoside titration concentration. Each titration point was repeated n = 4 times. The formulated 96-well culture plate (Sarstedt) had OD600 measured on a 20-min interval over 17 h using a BioTek Cytation 5 Cell Imaging Multimode Reader, incubating at 37 °C with 282 cpm orbital agitation. Experiments were repeated with fresh cultures on separate days to ensure consistent trends. Data was analyzed in Microsoft Excel and GraphPad5. The remainder of the culture immediately had its RNA isolated for qPCR experiments.
smiles,measurement,setting,value
"CN[C@@H]1[C@@H](O)[C@@H](O[C@@H]2[C@@H](O)[C@H](O[C@H]3OC(CN)=CC[C@H]3N)[C@@H](N)C[C@H]2N)OC[C@]1(C)O [Sisomicin, sisomicin]",OD600 growth curve,"3 ug/mL Sisomicin, time point 00:19:10",0.101 and 0.111 and 0.099
same,OD600 growth curve,"3 ug/mL Sisomicin, time point 00:39:10",0.104 and 0.115 and 0.102
same,OD600 growth curve,"3 ug/mL Sisomicin, time point 00:59:10",0.112 and 0.121 and 0.111 and 0.108
same,OD600 growth curve,"3 ug/mL Sisomicin, time point 01:19:10",0.125 and 0.132 and 0.122 and 0.117
same,OD600 growth curve,"3 ug/mL Sisomicin, time point 01:39:10",0.143 and 0.147 and 0.136 and 0.13
same,OD600 growth curve,"3 ug/mL Sisomicin, time point 01:59:10",0.168 and 0.167 and 0.154 and 0.149
same,OD600 growth curve,"3 ug/mL Sisomicin, time point 02:19:10",0.208 and 0.191 and 0.177 and 0.174
same,OD600 growth curve,"3 ug/mL Sisomicin, time point 02:39:10",0.256 and 0.223 and 0.208 and 0.206
same,OD600 growth curve,"3 ug/mL Sisomicin, time point 02:59:10",0.313 and 0.259 and 0.242 and 0.245
same,OD600 growth curve,"3 ug/mL Sisomicin, time point 03:19:10",0.364 and 0.286 and 0.271 and 0.274
same,OD600 growth curve,"3 ug/mL Sisomicin, time point 03:39:10",0.395 and 0.308 and 0.297 and 0.3
same,OD600 growth curve,"3 ug/mL Sisomicin, time point 03:59:10",0.42 and 0.329 and 0.319 and 0.322
same,OD600 growth curve,"3 ug/mL Sisomicin, time point 04:19:10",0.442 and 0.346 and 0.336 and 0.335
same,OD600 growth curve,"3 ug/mL Sisomicin, time point 04:39:10",0.47 and 0.371 and 0.357 and 0.362
same,OD600 growth curve,"3 ug/mL Sisomicin, time point 04:59:10",0.503 and 0.395 and 0.384 and 0.39
same,OD600 growth curve,"3 ug/mL Sisomicin, time point 05:19:10",0.526 and 0.414 and 0.405 and 0.411
same,OD600 growth curve,"3 ug/mL Sisomicin, time point 05:39:10",0.551 and 0.432 and 0.422 and 0.43
same,OD600 growth curve,"3 ug/mL Sisomicin, time point 05:59:10",0.574 and 0.451 and 0.437 and 0.449
same,OD600 growth curve,"3 ug/mL Sisomicin, time point 06:19:10",0.595 and 0.464 and 0.45 and 0.463
same,OD600 growth curve,"3 ug/mL Sisomicin, time point 06:39:10",0.605 and 0.471 and 0.456 and 0.474
same,OD600 growth curve,"3 ug/mL Sisomicin, time point 06:59:10",0.611 and 0.475 and 0.462 and 0.481
same,OD600 growth curve,"3 ug/mL Sisomicin, time point 07:19:10",0.621 and 0.483 and 0.468 and 0.486
same,OD600 growth curve,"3 ug/mL Sisomicin, time point 07:39:10",0.63 and 0.49 and 0.475 and 0.493
same,OD600 growth curve,"3 ug/mL Sisomicin, time point 07:59:10",0.638 and 0.498 and 0.481 and 0.499
same,OD600 growth curve,"3 ug/mL Sisomicin, time point 08:19:10",0.649 and 0.504 and 0.485 and 0.508
same,OD600 growth curve,"3 ug/mL Sisomicin, time point 08:39:10",0.659 and 0.512 and 0.49 and 0.514
same,OD600 growth curve,"3 ug/mL Sisomicin, time point 08:59:10",0.681 and 0.523 and 0.504 and 0.533
same,OD600 growth curve,"3 ug/mL Sisomicin, time point 09:19:10",0.697 and 0.539 and 0.517 and 0.551
same,OD600 growth curve,"3 ug/mL Sisomicin, time point 09:39:10",0.706 and 0.551 and 0.529 and 0.563
same,OD600 growth curve,"3 ug/mL Sisomicin, time point 09:59:10",0.713 and 0.556 and 0.535 and 0.57
same,OD600 growth curve,"3 ug/mL Sisomicin, time point 10:19:10",0.718 and 0.558 and 0.537 and 0.574
same,OD600 growth curve,"3 ug/mL Sisomicin, time point 10:39:10",0.724 and 0.56 and 0.537 and 0.578
same,OD600 growth curve,"3 ug/mL Sisomicin, time point 10:59:10",0.729 and 0.562 and 0.539 and 0.583
same,OD600 growth curve,"3 ug/mL Sisomicin, time point 11:19:10",0.734 and 0.561 and 0.539 and 0.584
same,OD600 growth curve,"3 ug/mL Sisomicin, time point 11:39:10",0.738 and 0.56 and 0.54 and 0.586
same,OD600 growth curve,"3 ug/mL Sisomicin, time point 11:59:10",0.742 and 0.559 and 0.536 and 0.586
same,OD600 growth curve,"3 ug/mL Sisomicin, time point 12:19:10",0.746 and 0.563 and 0.538 and 0.589
same,OD600 growth curve,"3 ug/mL Sisomicin, time point 12:39:10",0.754 and 0.577 and 0.558 and 0.598
same,OD600 growth curve,"3 ug/mL Sisomicin, time point 12:59:10",0.755 and 0.576 and 0.557 and 0.595
same,OD600 growth curve,"3 ug/mL Sisomicin, time point 13:19:10",0.749 and 0.573 and 0.553 and 0.59
same,OD600 growth curve,"3 ug/mL Sisomicin, time point 13:39:10",0.744 and 0.57 and 0.55 and 0.585
same,OD600 growth curve,"3 ug/mL Sisomicin, time point 13:59:10",0.736 and 0.567 and 0.548 and 0.581
same,OD600 growth curve,"3 ug/mL Sisomicin, time point 14:19:10",0.739 and 0.565 and 0.549 and 0.577
same,OD600 growth curve,"3 ug/mL Sisomicin, time point 14:39:10",0.737 and 0.562 and 0.547 and 0.573
same,OD600 growth curve,"3 ug/mL Sisomicin, time point 14:59:10",0.731 and 0.561 and 0.545 and 0.568
same,OD600 growth curve,"3 ug/mL Sisomicin, time point 15:19:10",0.726 and 0.557 and 0.542 and 0.563
same,OD600 growth curve,"3 ug/mL Sisomicin, time point 15:39:10",0.719 and 0.556 and 0.541 and 0.558
same,OD600 growth curve,"3 ug/mL Sisomicin, time point 15:59:10",0.713 and 0.554 and 0.538
same,OD600 growth curve,"3 ug/mL Sisomicin, time point 16:19:10",0.707 and 0.552 and 0.536 and 0.55
same,OD600 growth curve,"3 ug/mL Sisomicin, time point 16:39:10",0.702 and 0.55 and 0.533 and 0.545
same,OD600 growth curve,"3 ug/mL Sisomicin, time point 16:59:10",0.692 and 0.549 and 0.531 and 0.543
same,OD600 growth curve,"3 ug/mL Sisomicin, time point 17:19:10",0.685 and 0.547 and 0.529 and 0.538
same,OD600 growth curve,"6 ug/mL Sisomicin, time point 00:19:10",0.099 and 0.1 and 0.105 and 0.102
same,OD600 growth curve,"6 ug/mL Sisomicin, time point 00:39:10",0.1 and 0.102 and 0.107 and 0.104
same,OD600 growth curve,"6 ug/mL Sisomicin, time point 00:59:10",0.103 and 0.108 and 0.113
same,OD600 growth curve,"6 ug/mL Sisomicin, time point 01:19:10",0.106 and 0.111 and 0.117 and 0.112
same,OD600 growth curve,"6 ug/mL Sisomicin, time point 01:39:10",0.11 and 0.116 and 0.124 and 0.117
same,OD600 growth curve,"6 ug/mL Sisomicin, time point 01:59:10",0.115 and 0.123 and 0.133 and 0.124
same,OD600 growth curve,"6 ug/mL Sisomicin, time point 02:19:10",0.121 and 0.132 and 0.144
same,OD600 growth curve,"6 ug/mL Sisomicin, time point 02:39:10",0.129 and 0.141 and 0.154 and 0.142
same,OD600 growth curve,"6 ug/mL Sisomicin, time point 02:59:10",0.138 and 0.151 and 0.163 and 0.15
same,OD600 growth curve,"6 ug/mL Sisomicin, time point 03:19:10",0.145 and 0.161 and 0.172 and 0.158
same,OD600 growth curve,"6 ug/mL Sisomicin, time point 03:39:10",0.152 and 0.171 and 0.18 and 0.166
same,OD600 growth curve,"6 ug/mL Sisomicin, time point 03:59:10",0.16 and 0.181 and 0.187 and 0.171
same,OD600 growth curve,"6 ug/mL Sisomicin, time point 04:19:10",0.169 and 0.191 and 0.195 and 0.178
same,OD600 growth curve,"6 ug/mL Sisomicin, time point 04:39:10",0.178 and 0.201 and 0.203 and 0.183
same,OD600 growth curve,"6 ug/mL Sisomicin, time point 04:59:10",0.188 and 0.211
same,OD600 growth curve,"6 ug/mL Sisomicin, time point 05:19:10",0.199 and 0.22 and 0.219 and 0.191
same,OD600 growth curve,"6 ug/mL Sisomicin, time point 05:39:10",0.213 and 0.23 and 0.227 and 0.195
same,OD600 growth curve,"6 ug/mL Sisomicin, time point 05:59:10",0.224 and 0.238 and 0.235 and 0.199
same,OD600 growth curve,"6 ug/mL Sisomicin, time point 06:19:10",0.235 and 0.247 and 0.243 and 0.203
same,OD600 growth curve,"6 ug/mL Sisomicin, time point 06:39:10",0.247 and 0.256 and 0.251 and 0.206
same,OD600 growth curve,"6 ug/mL Sisomicin, time point 06:59:10",0.256 and 0.267 and 0.258 and 0.21
same,OD600 growth curve,"6 ug/mL Sisomicin, time point 07:19:10",0.267 and 0.277 and 0.266 and 0.214
same,OD600 growth curve,"6 ug/mL Sisomicin, time point 07:39:10",0.274 and 0.288 and 0.272 and 0.218
same,OD600 growth curve,"6 ug/mL Sisomicin, time point 07:59:10",0.283 and 0.3 and 0.279 and 0.223
same,OD600 growth curve,"6 ug/mL Sisomicin, time point 08:19:10",0.292 and 0.31 and 0.286 and 0.23
same,OD600 growth curve,"6 ug/mL Sisomicin, time point 08:39:10",0.299 and 0.318 and 0.292 and 0.237
